Laboratory results: the supplement of paper PMC10338343
± gives the standard deviation. This is a selection; strong and weak results do not stand in their true shares. Many entries were measured with a wide error. The list shows a part of the results.

Assays:
[1] = system: MILI (PIWIL2) piRISC loaded with L1MC piRNA (26 nt); test: pre-steady-state target cleavage rate (min^-1); higher = faster piRNA-guided slicing of the target; conditions: guide: L1MC piRNA 5'p-UAACUAAAUACUAUGCAAGCUGUAGG
Summary of the method: (§1)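 Active affinity-purified piRISC (1 nM) loaded with one synthetic guide was mixed with a transcribed, DNA-blocked target RNA library (0.1 nM), with or without 500 nM GTSF1 partner protein, in HEPES–potassium acetate buffer at 33 °C for 0–8 or 0–960 min. Uncleaved targets were sequenced, normalised to depth and to weakly complementary targets, and pooled across three trials, with k3 capped at 0.0001 min^-1. The pre-steady-state cleavage rate was determined with a burst-and-steady-state fit.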

[2] = system: MIWI (PIWIL1) piRISC loaded with L1MC piRNA (30 nt); test: as above; conditions: guide: L1MC piRNA 5'p-UAACUAAAUACUAUGCAAGCUGUAGGUCCU; auxiliary factor: none (no GTSF1)
Summary of the method: as §1

[3] = system: EfPiwi piRISC loaded with L1MC piRNA (26 nt); test: pre-steady-state target cleavage rate (min^-1); guide: L1MC piRNA 5'p-UAACUAAAUACUAUGCAAGCUGUAGG; MIWI and MILI are mouse PIWI proteins and EfPiwi is from a freshwater sponge; tags in brackets are library labels; higher = faster piRNA-guided slicing of the target
Summary of the method: as §1

[4] = auxiliary factor: none (no GTSF1)
[5] = auxiliary factor: 500 nM Ephydatia muelleri Gtsf1
[6] = auxiliary factor: none (no Gtsf1)

| Sequence | pre-steady-state target cleavage rate [1, 4] | pre-steady-state target cleavage rate [2] | pre-steady-state target cleavage rate [3, 5] | pre-steady-state target cleavage rate [3, 6] | pre-steady-state target cleavage rate ([1]; auxiliary factor: 500 nM mouse GTSF1) |
| --- | --- | --- | --- | --- | --- |
| UCCUGGAUGUGCUUGGUAAGUAUUUAGAAA | 0.000491 ± 0.012 | 0.000649 ± 0.012 | 0.00031 ± 0.015 | 0.000329 ± 0.033 |  |
| UCCUGGAUGUCCUUGCAUAGUUUUUAGUAA | 0.00235 ± 0.0031 | 0.00187 ± 0.0036 | 0.00206 ± 0.0043 | < 0.0001 |  |
| UCCUGGUACAGCAACCAUAGUAUUUAGUUA |  | 0.00108 ± 0.0044 | 0.00171 ± 0.0033 | 0.000718 ± 0.0086 | 0.286 ± 0.042 |
| UCCUGGAACAGCUUCCAUAGUAUUAAGUUA | 0.000459 ± 0.014 | 0.000817 ± 0.0088 | 0.000954 ± 0.0035 | < 0.0001 |  |
| UCCUGGAACAGCUUGCAUAGUAAUUAGAAA | 0.00116 ± 0.0052 | 0.00284 ± 0.003 | 0.00338 ± 0.0026 | 0.000109 ± 0.039 |  |
| UCCUGGAACAGCUAGCAUAGUAUUUACAAA | 0.00153 ± 0.0049 | 0.00248 ± 0.0038 | 0.00337 ± 0.0029 | 0.000212 ± 0.036 |  |
| UCCUGGAUCAGCAUCCAUAGUAUUUAGUUA | 0.00148 ± 0.0051 | 0.000744 ± 0.0077 | 0.00269 ± 0.0023 | 0.000271 ± 0.021 |  |
| UCCUGGAUCAGCUUGCCAUAGUAUUUAGUUA | 0.00101 ± 0.0065 | 0.00119 ± 0.0043 | 0.00658 ± 0.0025 | 0.00057 ± 0.011 |  |
| UCCUGGAUCAGCAAGCAUAGUAUUUAGAAA | 0.00136 ± 0.0051 | 0.00135 ± 0.0049 | 0.00126 ± 0.0036 | 0.000182 ± 0.037 |  |
| UCCUGGAUGUCCAUGCAUAGUAUUUUGUUA | 0.00068 ± 0.012 | 0.00111 ± 0.0083 | 0.000213 ± 0.034 | 0.000321 ± 0.027 |  |
| UCCUGGAACAGCUUGCAUUCAUAAAUCAAA [g13:g23:cont:t1A] | 0.000312 ± 0.013 | 0.000269 ± 0.011 | 0.000469 ± 0.0066 | 0.000254 ± 0.028 |  |
| UCCUGGAUGAGCUACCAUAGUAUUUAGAAA | 0.000444 ± 0.012 | 0.000375 ± 0.0081 | 0.00151 ± 0.0029 | 0.000313 ± 0.017 |  |
| UCCUCCAUGAGCUUGCAUAGUAUUUUCAAA | 0.000652 ± 0.0071 | 0.00175 ± 0.0032 | 0.00215 ± 0.0024 | 0.000225 ± 0.025 |  |
| UCCUCCUACAGCUUGCAUAGUAAAAUCAAA | 0.00115 ± 0.0053 | 0.000282 ± 0.012 | 0.0042 ± 0.0034 | 0.000478 ± 0.015 |  |
| UCCUGGAACAGCUUGCAUACAAUUUAGAAA | 0.00076 ± 0.0063 | 0.00087 ± 0.0077 | 0.00296 ± 0.0045 | 0.000171 ± 0.041 |  |
| UCCUGGAUGUCCUUCCAUAGUAUAUAGUUA | 0.000278 ± 0.021 | 0.000215 ± 0.015 | 0.000213 ± 0.013 | 0.000127 ± 0.052 |  |
| UCCUGGUACAGCUUGCAUUCAAUUUAGUAA | 0.00117 ± 0.007 | 0.000255 ± 0.0096 | 0.000448 ± 0.007 | 0.000418 ± 0.019 |  |

Given with bars between the fields: part of the list above
Sequence | pre-steady-state target cleavage rate [1, 4] | pre-steady-state target cleavage rate [2] | pre-steady-state target cleavage rate [3, 5] | pre-steady-state target cleavage rate [3, 6] | pre-steady-state target cleavage rate ([1]; auxiliary factor: 500 nM mouse GTSF1)
UCCUGGAUCAGCAAGCAUAGUAUUUAGAAA | 0.00136 ± 0.0051 | 0.00135 ± 0.0049 | 0.00126 ± 0.0036 | 0.000182 ± 0.037 | 
UCCUGGAACAGCUUGCAUACAAUUUAGAAA | 0.00076 ± 0.0063 | 0.00087 ± 0.0077 | 0.00296 ± 0.0045 | 0.000171 ± 0.041 | 
